Data on 40 compounds can be found in the supplement of paper PMC4256282, “Profound Activity of the Anti-cancer Drug Bortezomib against Echinococcus multilocularis Metacestodes Identifies the Proteasome as a Novel Drug Target for Cestodes” (PLoS Neglected Tropical Diseases, 2014).

SMILES strings stand for the structures. Where a name gives a salt, the structure may show the parent alone. This is one part of the list. Single values are uncertain, as repeats are few or missing.

The test relates to Echinococcus multilocularis metacestodes. In words: vesicle damage (PGI release) relative to positive control DB1127 at 20 µM, DMSO subtracted; higher = more parasite damage. As to conditions: treatment time 5 days. The procedure: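 In vitro-cultured E. multilocularis metacestode vesicles (isolate H95, 2-4 mm) were treated in singlets with each drug of the Selleck FDA-approved library (426 drugs) at 20 µM for 5 days at 37°C. Damage was read as phosphoglucose isomerase (PGI) release into the medium, measured as the increase in absorbance at 340 nm. Activity was expressed as % of the positive control DB1127 (20 µM) after subtracting the DMSO control; a hit was defined as ≥50% of DB1127.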
Take `CC[C@@]1(O)C(=O)OCc2c1cc1n(c2=O)Cc2cc3c(CN(C)C)c(O)ccc3nc2-1` [Topotecan Hydrochloride]: the vesicle damage turned out to be 1.75%.
The figure for `Nc1nc2c(ncn2COCCO)c(=O)[nH]1` [Acyclovir] is -13.6%; for `CCOC(=O)c1ncn2c1CN(C)C(=O)c1cc(F)ccc1-2` [Flumazenil] it is -0.713%; for `COC(=O)[C@H](c1ccccc1Cl)N1CCc2sccc2C1` [Clopidogrel bisulfate] it is -7.77%.
Then `COc1c(N2C[C@@H]3CCCN[C@@H]3C2)c(F)cc2c(=O)c(C(=O)O)cn(C3CC3)c12` [Moxifloxacin], with 1.58%.
The figure for `Cc1cccc(C)c1OCC(=O)N[C@@H](Cc1ccccc1)[C@@H](O)C[C@H](Cc1ccccc1)NC(=O)[C@H](C(C)C)N1CCCNC1=O` [Lopinavir] is 16.6%; for `CC(C)OC(=O)C(C)(C)Oc1ccc(C(=O)c2ccc(Cl)cc2)cc1` [Fenofibrate] it is -15.1%.
For the compound `CN(C/C=C/C#CC(C)(C)C)Cc1cccc2ccccc12` [Terbinafine], the vesicle damage is 3.18%.
Then `CC(C[N+](C)(C)C)OC(N)=O` (stereo not given) [Bethanechol chloride], with 4.27%; and `O=C(N[C@H](CO)[C@H](O)c1ccc([N+](=O)[O-])cc1)C(Cl)Cl` [Chloramphenicol], with -0.769%.
The figure for `C[C@H](CCC(=O)O)[C@H]1CC[C@H]2[C@@H]3[C@@H](O)C[C@@H]4C[C@H](O)CC[C@]4(C)[C@H]3CC[C@]12C` [Ursodiol] is -3.52%; for `CC1=C(/C=C/C(C)=C/C=C/C(C)=C/C(=O)O)C(C)(C)CCC1` [Tretinoin] it is -0.444%; for `Cc1cc(NS(=O)(=O)c2ccc(N)cc2)no1` [Sulfamethoxazole] it is -12%.
Then `O=C(O)c1cccnc1` [Niacin], with -12.4%; and `COCCOC(=O)C1=C(C)NC(C)=C(C(=O)OC(C)C)C1c1cccc([N+](=O)[O-])c1` (stereo not given) [Nimodipine], with -12.8%.
With `CCCCCOC(=O)Nc1nc(=O)n([C@@H]2O[C@H](C)[C@@H](O)[C@H]2O)cc1F` [Capecitabine], the vesicle damage worked out at 0.0095%.
Then `CCc1cccc2c3c([nH]c12)C(CC)(CC(=O)O)OCC3` (stereo not given) [Etodolac], with 0.409%; and `O=C1[C@H](CC[C@H](O)c2ccc(F)cc2)[C@@H](c2ccc(O)cc2)N1c1ccc(F)cc1` [Ezetimibe], with -2.19%.
The figure for `O=c1[nH]c(=O)n([C@H]2C[C@H](O)[C@@H](CO)O2)cc1C(F)(F)F` [Trifluridine] is -13.4%.
Then `CO[C@H]1/C=C/O[C@@]2(C)Oc3c(C)c(O)c4c(O)c(c5c(nc6cc(C)ccn65)c4c3C2=O)NC(=O)/C(C)=C\C=C\[C@H](C)[C@H](O)[C@@H](C)[C@@H](O)[C@@H](C)[C@H](OC(C)=O)[C@@H]1C` [Rifaximin], with 2.72%; and `CN(C)C(=O)C(CCN1CCC(O)(c2ccc(Cl)cc2)CC1)(c1ccccc1)c1ccccc1` [Loperamide hydrochloride], with 1.33%.
On to `COc1cc2nc(N3CCN(C(=O)C4COc5ccccc5O4)CC3)nc(N)c2cc1OC` (stereo not given) [Doxazosin mesylate], for which the vesicle damage came to 7.9%.
Consider `CCc1nc(N)nc(N)c1-c1ccc(Cl)cc1` [Pyrimethamine], for which the vesicle damage stood at 0.646%.
The figure for `N[C@@H](Cc1ccc(O)c(O)c1)C(=O)O` [levodopa] is -12.2%; for `CCN(CC)CCNC(=O)c1c(C)[nH]c(/C=C2\C(=O)Nc3ccc(F)cc32)c1C` [Sunitinib Malate] it is 3.13%.
With `COc1cc([C@@H]2c3cc4c(cc3[C@@H](O[C@@H]3O[C@@H]5CO[C@@H](c6cccs6)O[C@H]5[C@H](O)[C@H]3O)[C@H]3COC(=O)[C@H]23)OCO4)cc(OC)c1O` [Teniposide], the vesicle damage is -13.6%.
`CNCCC(Oc1ccc(C(F)(F)F)cc1)c1ccccc1` (stereo not given) [Fluoxetine hydrochloride]: the vesicle damage was 2.71%.
Consider `COc1cnc(NS(=O)(=O)c2ccc(N)cc2)nc1` [Sulfameter], for which the vesicle damage was -1.36%.
The figure for `Cc1cn([C@@H]2C[C@@H](O)[C@H](CO)O2)c(=O)[nH]c1=O` [Telbivudine] is -1.08%.
The figure for `C[C@H](CCC(=O)O)[C@H]1CC[C@H]2[C@@H]3[C@H](O)C[C@@H]4C[C@H](O)CC[C@]4(C)[C@H]3CC[C@]12C` [Chenodeoxycholic acid] is -13.1%.
As to `Cn1c(CNc2ccc(C(=N)N)cc2)nc2cc(C(=O)N(CCC(=O)O)c3ccccn3)ccc21`, the vesicle damage is -0.928%.
The figure for `Cc1ccc(C)c(OCCCC(C)(C)C(=O)O)c1` [Gemfibrozil] is 2.47%; for `CC1Cc2ccccc2N1NC(=O)c1ccc(Cl)c(S(N)(=O)=O)c1` (stereo not given) [Indapamide] it is -11.6%.
Then `C[C@@H](O[C@H]1OCCN(Cc2n[nH]c(=O)[nH]2)[C@H]1c1ccc(F)cc1)c1cc(C(F)(F)F)cc(C(F)(F)F)c1` [Aprepitant], with 31.4%; and `O=C(O)C[C@H](O)C[C@H](O)/C=C/c1c(C2CC2)nc2ccccc2c1-c1ccc(F)cc1` [Pitavastatin calcium], with 9.79%.
With `COc1cccc2c1C(=O)c1c(O)c3c(c(O)c1C2=O)C[C@@](O)(C(=O)CO)C[C@@H]3O[C@H]1C[C@H](N)[C@@H](O)[C@H](C)O1` [Epirubicin Hydrochloride], the vesicle damage was 3.67%.
Then `C[C@@H](O)[C@H]1C(=O)N2C(C(=O)O)=C(S[C@@H]3CN[C@H](CNS(N)(=O)=O)C3)[C@H](C)[C@H]12` [Doripenem Hydrate], with -2.49%; and `NCCS(=O)(=O)O` [Taurine], with 3.35%; and `Nc1ccn([C@H]2CC[C@@H](CO)O2)c(=O)n1` [Zalcitabine], with -11.4%.
Then `Cc1oncc1C(=O)Nc1ccc(C(F)(F)F)cc1` [Leflunomide], with 0.295%.
